Assays:
[1] = tested on: regeneration of 11-cis-retinal; assay: Single dose time course in the in vivo isomerase assay at 0.3 mg/kg; set-up: species or system BALB/c mice; settings: peak area units
Description: (§1) All test compounds were stored at room temperature, dessicated.
The compounds were dissolved in di-water at the concentration of 0.068 mg/mL and stored overnight at 4° C.
52 Male BALB/c mice (Charles River Laboratories) were used for this study. The mice were approximately 8 weeks at the initiation of dosing with an average body weight of 23 grams.
The day prior to dose administration 52 BALB/c mice were placed into a dark room and dark adapted for a minimum of 12 hours prior to dose administration. The mice were maintained in the dark for the duration of the study.
(§2) Each animal was removed from its cage and dosed accordingly to the study design in Table 10 (see below). Each animal was administered 0.1 mL of the appropriate test article or vehicle orally using a 1 mL syringe fitted with a 23 gauge oral gavage needle. At 2, 4, 6, 8, 16 or 24 hours following dose administration, animals were removed from the dark and exposed to 5000 Lux white light for 10 minutes to photobleach their eyes. Following the completion of the photobleach the animals were returned to the dark for 2 hours to allow for the regeneration of 11-cis-retinal in the eyes. Two hours after photobleaching each animal was euthanized with carbon dioxide followed by cervical dislocation, in the dark under red light. The light control group was euthanized immediately following photobleaching. Immediately following the cervical dislocation both eyes of each animal were removed and transferred into separate tubes, flash frozen in liquid nitrogen and stored in the dark at −80° C. until processing and analysis.
(§3) All sample processing procedures were performed in the dark under red light.
Extracted samples were analyzed using an Agilent 1100 HPLC system according to the procedure outlined in Table 12 (see below)
(§4) HPLC analysis of the eyes measures the peak area units of the 110cis-Ral-Oxime_syn. Signal.
(§5) Data analysis % inhibition (drug vs. recovery control). % control (drug vs. light control), and One-way ANOVA (followed by Tukey's Multiple Comparison) were performed using peak area units and performed by Prism software. Data are represented as mean and standard deviation.

[2] = tested on: retinal isomerase activity (recovery of 11-cis-retinal); assay: Comparative in vivo murine isomerase assay, dose response; set-up: species or system BALB/c mice; settings: 2 hours, peak area units of 11-cis-retinal oxime
Description: as §1
On the day prior to dose administration compound A and compound D were weighed into new empty glass vials. The compounds were dissolved in di-water at the concentration of 0.833 mg/mL compound A and 0.892 mg/mL compound D, serially diluted into various concentrations, and stored overnight at 4° C.
56 Male BALB/c mice (Charles River Laboratories) were used for this study. The mice were approximately 8 weeks at the initiation of dosing with an average body weight of 24 grams.
The day prior to dose administration 56 BALB/c mice were placed into a dark room and dark adapted for a minimum of 12 hours prior to dose administration. The mice were maintained in the dark for the duration of the study.
as §2, with “Table 4” for “Table 10”, “appropriate compound” for “appropriate test article”, “vehicle via oral gavage” for “vehicle orally”, “needle. Two” for “needle. At 2, 4, 6, 8, 16 or 24”
as §3
Extracted samples were analyzed using an Agilent 1100 HPLC system according to the procedure outlined in Table 6 (see below)
as §4, §5

Row | Structure (SMILES) | Mean Diff., Tukey's Multiple Comparison Test, Vehicle vs. time point ([1]; 2 Hr) | Mean Diff., Tukey's Multiple Comparison Test, Vehicle vs. time point ([1]; 4 Hr) | Mean Diff., Tukey's Multiple Comparison Test, Vehicle vs. time point ([1]; 6 Hr) | Mean Diff., Tukey's Multiple Comparison Test, Vehicle vs. time point ([1]; 8 Hr) | Mean Diff., Tukey's Multiple Comparison Test, Vehicle vs. time point ([1]; 16 Hr) | Mean Diff., Tukey's Multiple Comparison Test, Vehicle vs. time point ([1]; 24 Hr) | Mean Diff., Tukey's Multiple Comparison Test, Vehicle vs. compound ([2]; 0.03 mg/kg) | Mean Diff., Tukey's Multiple Comparison Test, Vehicle vs. compound ([2]; 0.1 mg/kg) | Mean Diff., Tukey's Multiple Comparison Test, Vehicle vs. compound ([2]; 0.3 mg/kg) | Mean Diff., Tukey's Multiple Comparison Test, Vehicle vs. compound ([2]; 0.5 mg/kg) | Mean Diff., Tukey's Multiple Comparison Test, Vehicle vs. compound ([2]; 1 mg/kg) | Mean Diff., Tukey's Multiple Comparison Test, Vehicle vs. compound ([2]; 3 mg/kg)
1 | NCCC(O)c1cccc(OCC2CCCCO2)c1 (stereo not drawn) [compound D, reference compound] | 6.3 | −0.88 | 5.8 | 2.6 | −2.0 | 5.0 | −0.9 | −4.0 | −0.4 | 7.0 | 11.8 | 16.9
2 | NCC[C@@H](O)c1cccc(OCC2CCOCC2)c1 [Example 1] | 46.9 | 42.3 | 26.9 | 9.7 | 0.73 | 2.0 | −7.4 | −1.7 | 15.6 | 16.7 | 16.9 | 17.7
